Results are given in words; binding and its absence hold for the method and conditions named. In cells and extracts the contact can be indirect. Binding can be weak; no strength is given. For part of these data: Sequences can lack the tags named with a protein.
T1: HA-PLCγ1 Y783A (UniProt P19174)
T1 sequence: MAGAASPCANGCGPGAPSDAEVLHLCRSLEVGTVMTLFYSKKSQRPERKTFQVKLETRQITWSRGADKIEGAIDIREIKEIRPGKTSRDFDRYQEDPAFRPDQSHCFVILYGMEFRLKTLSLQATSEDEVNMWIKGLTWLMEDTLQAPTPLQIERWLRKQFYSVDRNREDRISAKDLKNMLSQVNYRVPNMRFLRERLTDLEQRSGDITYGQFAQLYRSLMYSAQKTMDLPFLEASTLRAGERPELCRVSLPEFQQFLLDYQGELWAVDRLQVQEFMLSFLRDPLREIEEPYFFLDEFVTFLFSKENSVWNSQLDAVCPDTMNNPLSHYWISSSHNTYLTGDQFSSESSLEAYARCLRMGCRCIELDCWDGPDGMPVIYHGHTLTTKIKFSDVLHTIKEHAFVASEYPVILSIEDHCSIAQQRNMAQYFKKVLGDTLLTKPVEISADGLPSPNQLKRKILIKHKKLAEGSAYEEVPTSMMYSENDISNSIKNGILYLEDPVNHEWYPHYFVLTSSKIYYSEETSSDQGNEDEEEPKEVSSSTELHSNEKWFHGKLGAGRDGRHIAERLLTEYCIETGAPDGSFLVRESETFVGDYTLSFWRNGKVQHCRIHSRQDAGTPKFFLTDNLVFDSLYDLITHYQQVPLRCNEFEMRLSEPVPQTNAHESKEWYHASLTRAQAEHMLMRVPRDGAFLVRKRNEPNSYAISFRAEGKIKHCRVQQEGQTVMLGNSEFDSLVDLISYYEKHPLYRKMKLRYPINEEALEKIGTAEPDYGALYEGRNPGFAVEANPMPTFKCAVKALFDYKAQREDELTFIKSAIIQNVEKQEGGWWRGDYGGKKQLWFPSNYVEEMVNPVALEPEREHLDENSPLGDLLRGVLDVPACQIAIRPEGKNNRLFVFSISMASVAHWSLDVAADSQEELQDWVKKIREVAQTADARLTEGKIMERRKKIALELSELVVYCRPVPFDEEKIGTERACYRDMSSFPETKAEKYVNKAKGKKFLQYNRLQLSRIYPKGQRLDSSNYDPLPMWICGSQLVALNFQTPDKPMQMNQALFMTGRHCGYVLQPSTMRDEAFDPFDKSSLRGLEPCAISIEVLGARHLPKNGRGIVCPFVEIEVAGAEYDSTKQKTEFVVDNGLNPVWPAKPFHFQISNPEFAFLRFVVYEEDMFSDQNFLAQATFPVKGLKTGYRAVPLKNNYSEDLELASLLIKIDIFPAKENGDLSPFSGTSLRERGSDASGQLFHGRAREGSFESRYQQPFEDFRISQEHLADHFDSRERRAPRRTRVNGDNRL


Columns and labels:
HA-PLCγ1 Y783A = target: T1, HA-PLCγ1 Y783A; assay: co-IP; lysates of human OA chondrocytes transfected with HA-PLCγ1 or HA-PLCγ1 Y783A for 48 h; 400 μg protein with Protein A&G Sepharose and anti-PLCγ antibody, 3 h at 4°C; blotted with PLCγ1 and Akt antibodies
myc-Akt = assay: co-IP; lysates of human OA chondrocytes transfected with myc-Akt or myc-Akt S473A for 48 h; 400 μg protein with Protein A&G Sepharose and anti-Akt antibody, 3 h at 4°C; blotted with PLCγ1 and Akt antibodies
myc-Akt S473A = assay: as above

binding (HA-PLCγ1 Y783A) | binding (myc-Akt) | binding (myc-Akt S473A) | Molecule
binds | – | – | Akt (protein kinase B), endogenous in human OA chondrocytes
– | binds | binds | PLCγ1 (phosphoinositide-specific phospholipase γ1), endogenous in human OA chondrocytes (protein, UniProt P19174 1-1290) MAGAASPCANGCGPGAPSDAEVLHLCRSLEVGTVMTLFYSKKSQRPERKTFQVKLETRQITWSRGADKIEGAIDIREIKEIRPGKTSRDFDRYQEDPAFRPDQSHCFVILYGMEFRLKTLSLQATSEDEVNMWIKGLTWLMEDTLQAPTPLQIERWLRKQFYSVDRNREDRISAKDLKNMLSQVNYRVPNMRFLRERLTDLEQRSGDITYGQFAQLYRSLMYSAQKTMDLPFLEASTLRAGERPELCRVSLPEFQQFLLDYQGELWAVDRLQVQEFMLSFLRDPLREIEEPYFFLDEFVTFLFSKENSVWNSQLDAVCPDTMNNPLSHYWISSSHNTYLTGDQFSSESSLEAYARCLRMGCRCIELDCWDGPDGMPVIYHGHTLTTKIKFSDVLHTIKEHAFVASEYPVILSIEDHCSIAQQRNMAQYFKKVLGDTLLTKPVEISADGLPSPNQLKRKILIKHKKLAEGSAYEEVPTSMMYSENDISNSIKNGILYLEDPVNHEWYPHYFVLTSSKIYYSEETSSDQGNEDEEEPKEVSSSTELHSNEKWFHGKLGAGRDGRHIAERLLTEYCIETGAPDGSFLVRESETFVGDYTLSFWRNGKVQHCRIHSRQDAGTPKFFLTDNLVFDSLYDLITHYQQVPLRCNEFEMRLSEPVPQTNAHESKEWYHASLTRAQAEHMLMRVPRDGAFLVRKRNEPNSYAISFRAEGKIKHCRVQQEGQTVMLGNSEFDSLVDLISYYEKHPLYRKMKLRYPINEEALEKIGTAEPDYGALYEGRNPGFYVEANPMPTFKCAVKALFDYKAQREDELTFIKSAIIQNVEKQEGGWWRGDYGGKKQLWFPSNYVEEMVNPVALEPEREHLDENSPLGDLLRGVLDVPACQIAIRPEGKNNRLFVFSISMASVAHWSLDVAADSQEELQDWVKKIREVAQTADARLTEGKIMERRKKIALELSELVVYCRPVPFDEEKIGTERACYRDMSSFPETKAEKYVNKAKGKKFLQYNRLQLSRIYPKGQRLDSSNYDPLPMWICGSQLVALNFQTPDKPMQMNQALFMTGRHCGYVLQPSTMRDEAFDPFDKSSLRGLEPCAISIEVLGARHLPKNGRGIVCPFVEIEVAGAEYDSTKQKTEFVVDNGLNPVWPAKPFHFQISNPEFAFLRFVVYEEDMFSDQNFLAQATFPVKGLKTGYRAVPLKNNYSEDLELASLLIKIDIFPAKENGDLSPFSGTSLRERGSDASGQLFHGRAREGSFESRYQQPFEDFRISQEHLADHFDSRERRAPRRTRVNGDNRL
